In the supplement of paper PMC7858590:
± gives the standard deviation of the averaged measurements. The list shows a part of the results. This data set is noisy: repeats of one test often differ as much as different tests do.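 Macrophages came from blood monocytes pooled from four healthy donors and grown with M-CSF; these M1-like cells were treated with compounds that had pushed resting macrophages toward the M2-like state in a first-round screen. The Z-score is a t-test comparing cell eccentricity (about 1000 cells per well) with same-row DMSO wells; a compound counts as reprogramming when it passes the M2 cutoff of +6 set by standard cytokine controls (the M1 cutoff is −4).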

system: human monocyte-derived macrophages (polarized); assay: cell shape (eccentricity) Z-score vs DMSO control; macrophage state: M1-polarized (IFNg + TNFa), cytokines removed before treatment; higher = more elongated, M2-like morphology; conditions: 24 h; 5 µM

`COc1ccc2c(c1OC)CN(C)CCc1cc3c(cc1C(=O)C2)OCO3` and `COc1ccc(OC)c(-c2nnc3n2N=C(c2ccc(OC)c(OC)c2)CS3)c1` are within error of each other in “cell shape (Z-score)” value: 4.16 ± 6.4 for the first, -2.41 ± 1.9 for the second.

`COc1cccc2c1C(=O)c1c(O)c3c(c(O)c1C2=O)C[C@@](O)(C(C)=O)C[C@@H]3O[C@H]1C[C@H](N)[C@H](O)[C@H](C)O1` and `COc1c(OC)c(O)c2c(=O)c(O)c(-c3ccccc3)oc2c1OC` are within error of each other in “cell shape (Z-score)” value: -1.45 ± 3.3 for the first, 2.08 ± 7.1 for the second.

`N#CCNC(=O)c1ccc(-c2ccnc(Nc3ccc(N4CCOCC4)cc3)n2)cc1` and `Cc1c(C(=O)Nc2ccc(N3C[C@@H](C)O[C@@H](C)C3)nc2)cccc1-c1ccc(OC(F)(F)F)cc1` are within error of each other in “cell shape (Z-score)” value: 4.33 ± 6 for the first, 3.56 for the second.

`Cc1[nH]c2ccccc2c1CCNCc1ccc(/C=C/C(=O)NO)cc1` and `Cc1onc(-c2ccccc2Cl)c1C(=O)N[C@@H]1C(=O)N2[C@@H]1SC(C)(C)[C@@H]2C(=O)O` are within error of each other in “cell shape (Z-score)” value: 9.66 for the first, 3.93 ± 7.2 for the second.

Compared with `CC1CNCCN1S(=O)(=O)c1cccc2cnccc12` (centres undefined), `O=S(=O)(c1cccc2cnccc12)N1CCNCC1` is higher in “cell shape (Z-score)” value: -3.89 ± 1.3 for the first, -0.106 ± 0.51 for the second.

`CS(=O)(=O)c1cccc(CNc2nc(Nc3ccc4c(c3)CCC(=O)N4)ncc2C(F)(F)F)c1` and `CN1CCN(c2nc(C3=C(c4c[nH]c5ccccc45)C(=O)NC3=O)c3ccccc3n2)CC1` are within error of each other in “cell shape (Z-score)” value: -2 ± 4.1 for the first, -0.749 ± 8 for the second.

`CCOC(=O)N[C@@H]1CC[C@@H]2[C@@H](C1)C[C@H]1C(=O)O[C@H](C)[C@H]1[C@H]2/C=C/c1ccc(-c2cccc(F)c2)cn1` and `O=C(O[C@@H]1Cc2c(O)cc(O)cc2O[C@@H]1c1cc(O)c(O)c(O)c1)c1cc(O)c(O)c(O)c1` are within error of each other in “cell shape (Z-score)” value: 2.42 ± 2.1 for the first, 1.14 ± 6.9 for the second.
